Test results published in PubChem BioAssay AID493014 (National Center for Advancing Translational Sciences (NCATS), 2011).
The list shows a part of the results. Shown are side measurements of this screen, not its main read-out; they come without a call. Most of these compounds were active or inconclusive in the main read-out, so they are no random draw. Words in brackets tell the shape of the fitted curve; partial curves, single points and poor fits give uncertain potencies.

Test: qHTS Assay to Find Inhibitors of Chronic Active B-Cell Receptor Signaling
Details: ABC-DLBCL IkBa-CBG/CBR reporter, luminescence ratio (green luciferase fused to IkBa over red control in TMD8 lymphoma cells), 4 h
In short: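 Doxycycline induced both beetle luciferases in TMD8 lymphoma cells; IKK-driven degradation limits the IkappaBalpha-fused green signal, while red luminescence normalises for cell number and nonspecific effects. Compounds tested up to 46 uM, 4 hrs.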

[1] = measured here: CBR red luminescence, cell number

Compound	AC50 [1]	AC50 (measured here: IkBa-CBG green luminescence)
O=c1c2ccccc2[nH]c(=S)n1C1CCCCC1	6.31 µM [rising, partial curve, poor fit]	–
CCCn1c(COc2ccc(C(=O)O)cc2)nc2ccccc21	2.82 µM [rising, full curve, poor fit]	–
O=S(=O)(NC1CCCC1)c1cccc(-c2nnc(-c3ccccc3)o2)c1	11.6 µM [falling, single point]	–
O=C(Oc1cccc(NC(=O)c2ccco2)c1)c1ccc(Br)c(S(=O)(=O)N2CCCCC2)c1	11.6 µM [falling, partial curve, poor fit]	–
Cc1ccc(OC(=O)c2cccc(S(=O)(=O)N(C)C)c2)c(-n2nc3ccccc3n2)c1	1.64 µM [rising, full curve, poor fit]	–
COc1ccc(NC(=O)COCc2cc(-c3cccs3)on2)cc1	2.82 µM [rising, full curve, poor fit]	–
CCOc1ccc(C(C(=O)NC2CCCC2)N(C(=O)c2snc(C(N)=O)c2N)c2cccc(O)c2)cc1 (configuration not stated)	14.1 µM [rising, partial curve, poor fit]	–
Cc1ccc(C(=O)CSc2nc3ccccc3c(=O)n2N)o1	35.5 µM [falling, single point]	–
CC(C)c1ccc(C2(C)NC(=O)N(C(C)C(=O)Nc3ccc(N4CCOCC4)cc3)C2=O)cc1 (configuration not stated)	3.26 µM [falling, partial curve, poor fit]	–
Cc1ccc(C)c(OCCn2cc(C(=O)O)c3ccccc32)c1	7.94 µM [falling, partial curve, poor fit]	–
O=C(Nc1ccc(Cl)cn1)c1ccc2nccnc2c1	6.31 µM [falling, partial curve, poor fit]	–
O=C1CC(C(=O)Nc2ccccc2)S/C(=N\N=C\c2ccco2)N1 (configuration not stated)	0.517 µM [rising, full curve, poor fit]	–
COc1ccc(/C=N/OC(=O)Nc2ccccc2OC)cc1	11.2 µM [falling, partial curve]	–
CCC1(CC)Nc2ccccc2C(=O)N1c1ccc(NC(C)=O)cc1	12.6 µM [falling, partial curve]	–
O=C(NCc1ccccc1Cl)c1ccc2c(c1)OCO2	0.447 µM [falling, full curve, poor fit]	–
O=C(Nc1ccc2c(c1)OCO2)C1CCN(Cc2cnn(-c3ccccc3)c2-n2cccc2)CC1	18.4 µM [rising, single point]	–
Clc1ccc(OCc2cc(-c3ccccc3)no2)c(Cl)c1	11.6 µM [falling, partial curve, poor fit]	–
O=C(N/N=C/c1ccc(OC(=O)c2cccs2)cc1)c1cccc(F)c1	7.31 µM [falling, partial curve, poor fit]	–
Cc1ccc(N2C(=O)C(Cl)=C(NCCO)C2=O)c(C)c1	6.51 µM [rising, single point]	–
CCN=C1SC(CC(=O)NC(C)C)C(=O)N1CC (configuration not stated)	0.206 µM [falling, full curve]	–
CC(=O)[C@@]1(O)[C@H](C)CC2C3CC=C4CC(OP(=O)(O)O)CC[C@]4(C)C3CC[C@@]21C (some centres not stated)	3.55 µM [rising, partial curve]	–

Compound	AC50 [1]	AC50 (measured here: IkBa-CBG green luminescence)
CC(C)NC(=O)CSc1nnc(-c2ccc(F)cc2)c2ccccc12	12.6 µM [falling, single point]	–
COc1ccccc1/C=N/NC(=O)c1cc2c(OC)c(OC)ccc2[nH]1	2.51 µM [rising, full curve, poor fit]	–
CSc1nc2c(c(=O)n1C)SC(C)C2 (configuration not stated)	20.6 µM [rising, partial curve, poor fit]	–
COC(=O)c1cc2c(ccn2-c2ccc(F)cc2)n1Cc1cccc(OC)c1	0.82 µM [rising, full curve, poor fit]	–
Cc1cc(NC(=O)c2sc(Nc3ccc(F)cc3)nc2N)no1	12.6 µM [falling, partial curve, poor fit]	12.6 µM [rising, partial curve, poor fit]
O=C(c1ccco1)N1CCN(C(=O)c2cccc3c2C(=O)N(Cc2cccnc2)C3)CC1	29.1 µM [falling, single point]	–
Clc1ccc2c(N/N=C/c3cccnc3)ccnc2c1	12.6 µM [falling, single point]	–
CCOC(=O)CNS(=O)(=O)c1cc(-c2nnc(Nc3ccc4c(c3)OCO4)c3ccccc23)ccc1C	13 µM [falling, partial curve]	–
Clc1ccc(-c2cn3nc4c(nc3n2)CCCC4)cc1	14.6 µM [falling, single point]	–
CCCNC(=O)c1cc(-c2ccco2)on1	9.2 µM [falling, partial curve]	–
COc1ccc(NC(=O)c2ccc(-c3csc(C)n3)cc2)cc1	6.31 µM [falling, single point]	–
O=C(Oc1ccccc1C(=S)N1CCOCC1)c1ccccc1	3.55 µM [rising, full curve, poor fit]	–
COc1cccc(-c2ccc(NC(=O)C3CCCN(Cc4cnc(N(C)C)s4)C3)cc2)c1 (configuration not stated)	22.4 µM [falling, single point]	–
CC(CCc1ccccc1)NC(=O)C(C)OC(=O)c1ccco1 (configuration not stated)	8.2 µM [rising, partial curve, poor fit]	–
COc1ccccc1NC(=O)Cc1coc2cc(C)ccc12	0.146 µM [falling, full curve, poor fit]	–
Cc1ccc(S(=O)(=O)CCC(=O)Oc2ccc(-c3nnco3)cc2)cc1	16.4 µM [falling, single point]	–
CNC(=O)COC(=O)/C=C/c1nc2ccccc2s1	3.55 µM [falling, full curve]	–
Cc1cccc(OCc2nc(-c3cccnc3)no2)c1	0.461 µM [rising, full curve, poor fit]	–
COc1ccc(C(=O)Nc2ccccc2C(=O)NC(Cc2ccc(O)cc2)C(=O)NNC(=O)c2ccccc2Cl)cc1 (configuration not stated)	29.1 µM [falling, single point]	–
COC(=O)c1sc(NC(=O)CSc2nnc(C(C)C)n2C)nc1C	6.51 µM [falling, partial curve, poor fit]	–

2 entries from above, with each value named.
O=C(c1ccco1)N1CCN(C(=O)c2cccc3c2C(=O)N(Cc2cccnc2)C3)CC1
  AC50 [1]: 29.1 µM [falling, single point]
Cc1cccc(OCc2nc(-c3cccnc3)no2)c1
  AC50 [1]: 0.461 µM [rising, full curve, poor fit]
